Experimental data as given in patent publication EP4790066A1, “GLP-1R/GIPR/GCGR TRIPLE AGONIST ANALOGUE AND USE THEREOF” (Shenzhen Bay Laboratory, priority 2023, dated 2025).
For part of these data: Not every detail of the peptide structures is certain; ends, links or a residue may be inferred. For part of these data: For at least one compound, name, drawing or mass did not settle the structure. *1 amine or outer side, *2 acyl side, *3 side chain or, on linkers, in order; H or OH if unused. Where a SMILES comes first, the peptide text is derived from it. Bridges are numbered along the chain shown (N, C = ends). [ ]: non-standard residue; d: D form. X1 = O=C(O)CCCCCCCCCCCCCCCCCCC(=O)N[C@@H](CCCCNC(=O)COCCOCCNC(=O)COCCOCCNC(=O)CCC(=O)N(CCNC(=O)C[*:1])CCNC(=O)C[*:2])C(=O)O; Phe(2-F) = N[C@@H](Cc1ccccc1F)C(=O)O; Iva = CC[C@](C)(N)C(=O)O; Aib = CC(C)(N)C(=O)O

Protein sequences, listed by entry. Tags and fused reporters are not part of them. Residues count along the entry.
UniProt P43220, 24-463, species assumed: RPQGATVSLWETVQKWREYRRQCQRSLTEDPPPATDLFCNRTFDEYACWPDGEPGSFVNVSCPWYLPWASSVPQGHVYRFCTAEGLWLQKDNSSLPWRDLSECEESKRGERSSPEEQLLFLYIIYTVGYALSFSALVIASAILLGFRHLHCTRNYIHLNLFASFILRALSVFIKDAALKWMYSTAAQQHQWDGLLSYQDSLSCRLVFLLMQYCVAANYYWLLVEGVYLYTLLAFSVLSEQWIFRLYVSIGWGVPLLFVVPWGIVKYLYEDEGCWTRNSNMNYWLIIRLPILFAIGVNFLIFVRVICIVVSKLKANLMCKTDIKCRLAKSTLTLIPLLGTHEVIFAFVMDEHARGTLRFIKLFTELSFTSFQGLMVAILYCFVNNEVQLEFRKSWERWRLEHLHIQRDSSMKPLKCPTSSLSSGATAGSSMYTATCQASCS
UniProt P47871, 26-477, species assumed: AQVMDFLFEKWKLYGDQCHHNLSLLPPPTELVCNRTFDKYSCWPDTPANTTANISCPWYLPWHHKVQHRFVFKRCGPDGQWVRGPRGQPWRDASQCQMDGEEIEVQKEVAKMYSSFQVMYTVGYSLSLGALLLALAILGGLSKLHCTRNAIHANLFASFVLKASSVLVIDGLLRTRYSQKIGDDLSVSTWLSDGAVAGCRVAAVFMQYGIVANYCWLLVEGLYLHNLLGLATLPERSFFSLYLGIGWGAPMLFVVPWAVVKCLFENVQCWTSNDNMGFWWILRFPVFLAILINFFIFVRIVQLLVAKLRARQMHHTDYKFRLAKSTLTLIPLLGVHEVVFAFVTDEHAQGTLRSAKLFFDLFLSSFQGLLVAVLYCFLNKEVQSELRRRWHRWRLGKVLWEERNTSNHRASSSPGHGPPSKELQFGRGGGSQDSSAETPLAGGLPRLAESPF

Columns and labels:
GLP-1R [1] = biological target: T1, GLP-1R (Homo sapiens, UniProt P43220); format: cell-based; conditions: EC50 at 10% FBS / EC50 at 0% FBS
T1 construct: expressed in transfected cells
Protocol: The steps are as follows:
The stably transfected cell line HEK293/pGM-CREB-L-Luc/GLP-1R pool was constructed. […] The corresponding test cells were selected, digested (for 1 min), dispersed by pipetting, and centrifuged (1000 rpm, 5 min). The culture medium was discarded, and the cells were suspended using Freestyle culture medium, centrifuged and counted. The cells were diluted to a cell density of 5 x 10^5 cells/mL using freestyle culture medium (0% FBS) and culture medium containing 10% FBS, respectively. The cells were then added to the detection wells of a 384-well plate (40 µL/20,000 cells/well). Echo was used to add the corresponding analyte dilution series. The cell plate was incubated at 37°C and 5% CO2 for 6 h, and then ONE-GLO (20 µL/well) was added for detection. It was kept in the dark for 3 min, and then a chemiluminescent microplate reader was used for determination. The plate was read within 30 min, and the determination results were recorded. […]

DIO male C57BL/6J mice = assay: In vivo efficacy in DIO mouse model, Q3D for 21 days (blood insulin, liver Oil Red O); conditions: 10 nmol/kg s.c. Q3D 21 days
[2] = test system: nonalcoholic steatohepatitis (NASH) mouse model; assay: In vivo efficacy in NASH mouse model (HFD + carbon tetrachloride), Q3D for 8 weeks; conditions: NASH mice, 10 nmol/kg Q3D 8 weeks
GLP-1R [3] = biological target: T1, GLP-1R; assay: CreLuc method (CRE-luciferase reporter), HEK293/pGM-CREB-L-Luc/GLP-1R pool; format: cell-based; conditions: 6 h incubation, read-out: EC50 (pM) for each receptor GLP-1R
Protocol: (§1) 1. Insulinotropic analogues can bind to the target receptor on the cell membrane, activate the cAMP response element (CRE), and initiate the expression of downstream luciferase. The expression level is positively correlated with the biological activity of the analogue being tested. After activation, luciferase substrate is added for chemiluminescence detection, and the luminescence intensity is determined to characterize the biological activity of the test compounds. Therefore, the target peptide derivatives (or polypeptide derivatives, i.e., TG1-TG94) prepared in Example 1 and Example 2 can be tested by the CreLuc method. The specific steps are as follows: The stably transfected cell lines HEK293/pGM-CREB-L-Luc/GLP-1R pool, HEK293/pGM-CREB-L-Luc/GIPR pool, and 293HEK/pGM-CREB-L-Luc/GCGR pool were constructed. […] The corresponding test cells were digested (1 min), dispersed by pipetting, and centrifuged (1000 rpm, 5 min). The culture medium was discarded, and the cells were resuspended in freestyle medium, centrifuged again, collected, and counted. The cells were then diluted to a cell density of 5 x 10^5 cells/mL and then added to the detection wells of a 384-well plate (40 µL/20,000 cells/well). […] It was kept in the dark for 3 min, then a chemiluminescent microplate reader was used for determination. The plate was read within 30 min, and the determination results were recorded. […]

GIPR [4] = biological target: T2, GIPR (Homo sapiens, UniProt P48546); assay: CreLuc method (CRE-luciferase reporter), HEK293/pGM-CREB-L-Luc/GIPR pool; format: cell-based; conditions: 6 h incubation, read-out: EC50 (pM) for each receptor GIPR
T2 construct: expressed in transfected cells
T2 sequence (P48546 22-466): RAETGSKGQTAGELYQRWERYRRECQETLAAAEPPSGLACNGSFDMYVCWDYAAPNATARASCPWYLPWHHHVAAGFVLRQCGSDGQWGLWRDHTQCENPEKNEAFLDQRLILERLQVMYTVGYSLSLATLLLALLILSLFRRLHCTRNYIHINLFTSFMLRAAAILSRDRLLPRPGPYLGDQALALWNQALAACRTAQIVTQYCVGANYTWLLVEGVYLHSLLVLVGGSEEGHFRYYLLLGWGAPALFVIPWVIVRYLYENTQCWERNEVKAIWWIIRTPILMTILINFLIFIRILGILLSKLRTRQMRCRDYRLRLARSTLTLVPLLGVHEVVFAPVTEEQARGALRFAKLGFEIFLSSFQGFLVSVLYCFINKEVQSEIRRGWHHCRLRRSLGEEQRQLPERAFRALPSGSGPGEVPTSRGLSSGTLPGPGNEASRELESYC
Protocol: as §1

GCGR [5] = biological target: T3, GCGR (Homo sapiens, UniProt P47871); assay: CreLuc method (CRE-luciferase reporter), 293HEK/pGM-CREB-L-Luc/GCGR pool; format: cell-based; conditions: 6 h incubation, read-out: EC50 (pM) for each receptor GCGR
T3 construct: expressed in transfected cells
Protocol: as §1

GLP-1R [6] = biological target: T1, GLP-1R; assay: cAMP method (HTRF cAMP detection kit), HEK293/pGM-CREB-L-Luc/GLP-1 pool; format: cell-based; conditions: read-out: EC50 (pM) for each receptor GLP-1R
Protocol: (§2) 2. Insulinotropic analogues can bind to target receptors on the cell membrane, activate the receptors, and induce release. The activity of the test substance can be determined using the HTRF method with a cAMP detection kit. Therefore, the cAMP method can be used to detect the target peptide derivatives (or polypeptide derivatives, i.e., TG1-TG86) prepared in Example 1 and Example 2. […] The test cell line was selected, treated with cAMP-specific trypsin for digestion. 3 mL of serum-free DMEM culture medium was added, and the cells were pipetted, resuspended, and counted. 5 µL of IBMX (prepared with serum-free DMEM medium, 0.5 mM) and test cells (5 µL/7500 cells/well) were added in a 384-well plate sequentially. The plate was incubated at 37°C under 5% CO2 for 30 min, followed by the addition of cAMP-d2 (5 µL, 1x) and Anti-cAMP-Cryptate (5 µL, 1x). The mixture was kept at room temperature for 1 h, after which the HTRF value was measured using a chemiluminescent microplate reader, and the determination result was recorded. […] Table 4: EC50 values for target peptide derivatives

GIPR [7] = biological target: T2, GIPR; assay: cAMP method (HTRF cAMP detection kit), HEK293/pGM-CREB-L-Luc/GIP pool; format: cell-based; conditions: read-out: EC50 (pM) for each receptor GIPR
Protocol: as §2

GCGR [8] = biological target: T3, GCGR; assay: cAMP method (HTRF cAMP detection kit), HEK293/pGM-CREB-L-Luc/GCG pool; format: cell-based; conditions: read-out: EC50 (pM) for each receptor GCGR
Protocol: as §2

| Compound | Fold (10%/0%) (GLP-1R [1]) | fat accumulation in the liver (DIO male C57BL/6J mice; Oil Red O, vs Retatrutide and Tirzepatide (FIG. 10)) | insulin resistance status and blood insulin levels (DIO male C57BL/6J mice; vs Retatrutide and Tirzepatide (FIG. 9)) | levels of liver fibrosis markers ([2]; Fibronectin and α-SMA staining (FIG. 11)) | liver inflammatory state ([2]; H&E, vs Tirzepatide (FIG. 11)) | liver fibrosis state ([2]; vs Tirzepatide (FIG. 11)) | EC50 (GLP-1R [3]) [pM] | EC50 (GIPR [4]) [pM] | EC50 (GCGR [5]) [pM] | EC50 (GLP-1R [6]) [pM] | EC50 (GIPR [7]) [pM] | EC50 (GCGR [8]) [pM] |
| --- | --- | --- | --- | --- | --- | --- | --- | --- | --- | --- | --- | --- |
| CC[C@H](C)[C@@H]1NC(=O)[C@H](Cc2ccccc2)NC(=O)[C@@H](NC(=O)C(C)(C)NC(=O)[C@H](CCC(N)=O)NC(=O)[C@H](C)NC(=O)[C@H](CCCCNC(C)=O)NC(=O)[C@H](CCCCN)NC(=O)[C@H](CC(=O)O)NC(=O)[C@H](CC(C)C)NC(=O)[C@](C)(CC)NC(=O)[C@@H](NC(=O)[C@H](CO)NC(=O)[C@H](Cc2ccc(O)cc2)NC(=O)[C@H](CC(=O)O)NC(=O)[C@H](CO)NC(=O)[C@@H](NC(=O)[C@H](Cc2ccccc2F)NC(=O)[C@@H](NC(=O)CNC(=O)[C@H](CCC(N)=O)NC(=O)C(C)(C)NC(=O)[C@@H](N)Cc2ccc(O)cc2)[C@@H](C)O)[C@@H](C)O)[C@@H](C)CC)CSCC(=O)NCCN(C(=O)CCC(=O)NCCOCCOCC(=O)NCCOCCOCC(=O)NCCCC[C@H](NC(=O)CCCCCCCCCCCCCCCCCCC(=O)O)C(=O)O)CCNC(=O)CSC[C@@H](C(=O)NCC(=O)NCC(=O)N2CCC[C@H]2C(=O)N[C@@H](CO)C(=O)N[C@@H](CO)C(=O)NCC(=O)N[C@@H](C)C(=O)N2CCC[C@H]2C(=O)N2CCC[C@H]2C(=O)N2CCC[C@H]2C(=O)N[C@@H](CO)C(N)=O)NC(=O)[C@H](CC(C)C)NC(=O)[C@H](CC(C)C)NC(=O)[C@H](Cc2ccc(O)cc2)NC(=O)[C@H](CCC(=O)O)NC1=O [TG52] (H-Y[Aib]QGT[Phe(2-F)]TSDYSI[Iva]LDKK(Ac)AQ[Aib]CFIEYLLCGGPSSGAPPPS-NH2; linker 21-28 via X1) | 65.7 | more significantly and effectively clear fat accumulation in the liver | more effectively improve the insulin resistance status and reduce blood insulin levels | significantly reduce the levels of liver fibrosis markers | more significantly and effectively improve the liver inflammatory state | more significantly reverse the liver fibrosis state |  |  |  |  |  |  |
| CC[C@H](C)[C@H](NC(=O)[C@H](CO)NC(=O)[C@H](Cc1ccc(O)cc1)NC(=O)[C@H](CC(=O)O)NC(=O)[C@H](CO)NC(=O)[C@@H](NC(=O)[C@H](Cc1ccccc1)NC(=O)[C@@H](NC(=O)CNC(=O)[C@H](CCC(N)=O)NC(=O)C(C)(C)NC(=O)[C@@H](N)Cc1ccc(O)cc1)[C@@H](C)O)[C@@H](C)O)C(=O)N[C@@H](CC(C)C)C(=O)N[C@@H](CC(C)C)C(=O)N[C@@H](CC(=O)O)C(=O)N[C@@H](CCCCN)C(=O)N[C@@H](CCCCNC(C)=O)C(=O)N[C@@H](C)C(=O)N[C@@H](CCC(N)=O)C(=O)NC(C)(C)C(=O)N[C@H]1CSCC(=O)NCCN(C(=O)CCC(=O)NCCOCCOCC(=O)NCCOCCOCC(=O)NCCCC[C@H](NC(=O)CCCCCCCCCCCCCCCCCCC(=O)O)C(=O)O)CCNC(=O)CSC[C@@H](C(=O)NCC(=O)NCC(=O)N2CCC[C@H]2C(=O)N[C@@H](CO)C(=O)N[C@@H](CO)C(=O)NCC(=O)N[C@@H](C)C(=O)N2CCC[C@H]2C(=O)N2CCC[C@H]2C(=O)N2CCC[C@H]2C(=O)N[C@@H](CO)C(N)=O)NC(=O)[C@H](CC(C)C)NC(=O)[C@H](CC(C)C)NC(=O)[C@H](Cc2ccc(O)cc2)NC(=O)[C@H](CCC(=O)O)NC(=O)[C@H]([C@@H](C)CC)NC(=O)[C@H](Cc2ccccc2)NC1=O [TG29] (H-Y[Aib]QGTFTSDYSILLDKK(Ac)AQ[Aib]CFIEYLLCGGPSSGAPPPS-NH2; linker 21-28 via X1; N-terminus assumed) |  |  |  |  |  |  | 98.3 | 16.7 | 312 | 3.7 | 1.1 | 65.1 |
| CC[C@H](C)[C@H](NC(=O)[C@H](CCC(=O)O)NC(=O)[C@H](CCC(=O)O)NC(=O)[C@H](CCCCNC(C)=O)NC(=O)[C@H](CCC(N)=O)NC(=O)[C@@H](NC(=O)[C@H](CO)NC(=O)[C@H](Cc1ccc(O)cc1)NC(=O)[C@H](CC(=O)O)NC(=O)[C@H](CO)NC(=O)[C@@H](NC(=O)[C@H](Cc1ccccc1F)NC(=O)[C@@H](NC(=O)CNC(=O)[C@H](Cc1c[nH]cn1)NC(=O)C(C)(C)NC(=O)[C@@H](N)Cc1c[nH]cn1)[C@@H](C)O)[C@@H](C)O)[C@@H](C)CC)C(=O)N[C@@H](C)C(=O)N[C@@H](CCC(N)=O)C(=O)NC(C)(C)C(=O)N[C@H]1CSCC(=O)NCCN(C(=O)CCC(=O)NCCOCCOCC(=O)NCCOCCOCC(=O)NCCCC[C@H](NC(=O)CCCCCCCCCCCCCCCCCCC(=O)O)C(=O)O)CCNC(=O)CSC[C@@H](C(=O)NCC(=O)NCC(=O)N2CCC[C@H]2C(=O)N[C@@H](CO)C(=O)N[C@@H](CO)C(=O)NCC(=O)N[C@@H](C)C(=O)N2CCC[C@H]2C(=O)N2CCC[C@H]2C(=O)N2CCC[C@H]2C(=O)N[C@@H](CO)C(N)=O)NC(=O)[C@H](CC(C)C)NC(=O)[C@H](CC(C)C)NC(=O)[C@H](Cc2c[nH]c3ccccc23)NC(=O)[C@H](CCC(=O)O)NC(=O)[C@H]([C@@H](C)CC)NC(=O)[C@H](Cc2ccccc2)NC1=O [TG64] (H-H[Aib]HGT[Phe(2-F)]TSDYSIQK(Ac)EEIAQ[Aib]CFIEWLLCGGPSSGAPPPS-NH2; linker 21-28 via X1) |  |  |  |  |  |  | 92.9 | 14.9 | 52.8 |  |  |  |
